In assay [1] the target is endogenous murine Bax, conformationally active (6A7 epitope exposed) (mouse) (UniProt Q07813). As to the kind of experiment: co-IP: flag IP of NPM, immunoblot for active Bax (6A7), after ATP depletion; FIG. 5C. Background: In western blotting, separated proteins are transferred to a membrane and probed.
Assay [2] shares this target. Put plainly: refers back to the co-IP result.
Assay [3] shares this target. Put plainly: co-IP in primary murine PTEC during ATP depletion; FIG. 5C.
For assay [4] the target is unchanged. Put plainly: co-IP: flag IP of NPM, immunoblot for active Bax (6A7); FIG. 5C.
Assay [5] has the same target. Put plainly: co-IP: flag IP of NPM, immunoblot for active Bax (6A7), after ischemic stress; wild-type is the reference lane; FIG. 5C.

Sequences of proteins named here, by UniProt entry; tags and fusion partners are left off. A change or cut given only in a name is not applied to a line headed by its entry.
UniProt Q07813: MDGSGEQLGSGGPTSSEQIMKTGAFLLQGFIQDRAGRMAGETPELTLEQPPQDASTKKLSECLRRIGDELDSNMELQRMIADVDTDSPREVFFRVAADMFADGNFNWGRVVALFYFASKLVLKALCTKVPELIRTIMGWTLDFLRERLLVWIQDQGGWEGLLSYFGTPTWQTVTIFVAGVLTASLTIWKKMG
UniProt P06748: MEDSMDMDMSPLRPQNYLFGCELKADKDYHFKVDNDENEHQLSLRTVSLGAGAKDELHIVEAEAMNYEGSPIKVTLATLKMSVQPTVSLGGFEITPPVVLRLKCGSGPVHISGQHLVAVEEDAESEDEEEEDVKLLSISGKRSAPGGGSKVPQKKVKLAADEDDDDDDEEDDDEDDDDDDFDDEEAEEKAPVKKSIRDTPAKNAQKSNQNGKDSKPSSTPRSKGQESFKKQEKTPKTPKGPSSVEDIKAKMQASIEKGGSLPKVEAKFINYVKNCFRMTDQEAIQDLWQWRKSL

No constants are given. Whether binding was seen depends on the method and setting. Binding seen in cells or lysates may run through a third protein. Some binding calls cover weakened binding; strength is not graded here.

For “flag-tagged NPM stress mimic (T86E-S88E-T95E-T234A-S242A) (from UniProt P06748 1-294)”, the binding entry in assay [1], in assay [2], in assay [3] and in assay [4] was “binds” each time.
For “flag-tagged wild-type human nucleophosmin (NPM) (from UniProt P06748 1-294)”, the binding entry in assay [5] is given as “binds”.

The values above are taken from US20240376166A1.
